Measured values as given in publication PMC12166091.
Results are given in words; binding and its absence hold for the method and conditions named. Binding seen in cells or lysates may run through a third protein. Some results given as binding are weak or reduced against the parent protein; the word gives no strength.

Protein sequences, listed by entry. Tags and fused reporters are not part of them.
UniProt Q96I24: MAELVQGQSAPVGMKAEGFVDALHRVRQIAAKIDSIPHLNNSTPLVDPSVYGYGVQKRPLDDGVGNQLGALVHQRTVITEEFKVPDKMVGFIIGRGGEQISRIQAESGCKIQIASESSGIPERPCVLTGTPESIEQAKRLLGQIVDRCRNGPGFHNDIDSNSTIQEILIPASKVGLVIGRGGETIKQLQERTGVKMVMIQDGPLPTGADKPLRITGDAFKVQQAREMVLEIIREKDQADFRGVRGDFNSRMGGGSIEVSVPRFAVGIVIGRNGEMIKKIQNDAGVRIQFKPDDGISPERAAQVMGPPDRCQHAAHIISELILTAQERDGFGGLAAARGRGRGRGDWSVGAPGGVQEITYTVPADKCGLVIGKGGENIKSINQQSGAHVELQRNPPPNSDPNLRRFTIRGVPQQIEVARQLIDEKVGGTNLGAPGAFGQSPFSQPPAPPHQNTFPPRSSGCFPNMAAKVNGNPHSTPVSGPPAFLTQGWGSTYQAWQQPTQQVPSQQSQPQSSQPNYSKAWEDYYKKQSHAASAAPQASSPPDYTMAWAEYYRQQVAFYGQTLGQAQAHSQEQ

Molecular target: Shiftless (SFL), isoform 1, C-terminal Flag-tagged (human) (UniProt Q9NUL5)
Assay: pull-down; pull-down assay with SFL (Supplementary Fig. S4g); methods not shown

binding | Substance
binds | Far Upstream Element Binding Protein 3 (FUBP3), of the cell lysate (from UniProt Q96I24 1-572)
binds | Stem Loop Binding Protein (SLBP), of the cell lysate (from UniProt Q14493 1-270)
